The values below come from PubChem BioAssay AID270 (DTP/NCI, 2004).

This experiment deals with BDF1 mice, s.c. Lewis lung carcinoma, T/C %. The experiment in a line: NCI In Vivo Anticancer Drug Screen. Data for tumor model Lewis Lung Carcinoma (subcutaneous) in B6D2F1 (BDF1) mice. The method, boiled down: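 Readout: survival or tumor size, expressed as treated (T) over vehicle control (C). Transplantable tumor implanted in mice; compound given to the treated group.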

The mark [1] stands for this setting: T/C endpoint: mean tumor weight, dose: 500.0 mg/kg/injection, schedule: Q01DX011 (ip), vehicle: carboxymethylcellulose (CMC), higher T/C = larger tumour.

The list does not hold the whole screen: it is rich in T/C values a quarter to a half above the control, in often repeated tests (any T/C) and in doses without a T/C. Further doses and runs are listed elsewhere. T/C: endpoint of the treated group in % of that of the vehicle group. Schedules are NCI's codes, read here as Q, the interval in days (D) or hours (H), X, the number of doses. Some T/C values are followed by the survivors on the day toxicity was checked, most often the fifth; without a count, all were alive then. Some doses were run more than once; the results are listed from low to high. Some entries give survivors of the animals treated and no T/C: the source holds a T/C of zero for them, seemingly a mark for toxic or unscored doses. Some doses without a T/C left all or most animals alive at the check, yet need not have been tolerated: the source hardly ever lists a survival T/C far under the control, and the zero likely stands for such cases as well. Counts of survivors are from the toxicity check (mostly the fifth day) where no day follows; animals may have died later. Additions like (4×) stand for listed records that agree. Where survival is the endpoint, this PubChem deposit counts one and a half times the control or more as active, and values a quarter to a half above the control carry no call in these data; other NCI protocols may use other cut-offs.

As to `CC(=O)Nc1cc2c(cc1Br)-c1ccccc1C2O` (configuration not stated), the T/C (T/C endpoint: mean tumor weight, dose: 85.0 mg/kg/injection, schedule: Q01DX011 (ip), vehicle: saline, evaluated on day 12, higher T/C = larger tumour) is 41 and 63 % of control [5 of 6 alive]. Also, the survivor count reads like this: (T/C endpoint: mean tumor weight, dose: 85.0 mg/kg/injection, schedule: Q01DX011 (ip), vehicle: saline, higher T/C = larger tumour) 0 of 6 and 2 of 6; (T/C endpoint: mean tumor weight, dose: 130.0 mg/kg/injection, schedule: Q01DX011 (ip), vehicle: saline, higher T/C = larger tumour) 1 of 6; (T/C endpoint: mean tumor weight, dose: 195.0 mg/kg/injection, schedule: Q01DX011 (ip), vehicle: saline, higher T/C = larger tumour) 1 of 6; (T/C endpoint: mean tumor weight, dose: 296.0 mg/kg/injection, schedule: Q01DX011 (ip), vehicle: saline, higher T/C = larger tumour) 0 of 6, 0 of 7, 4 of 7; (T/C endpoint: mean tumor weight, dose: 444.0 mg/kg/injection, schedule: Q01DX011 (ip), vehicle: saline, higher T/C = larger tumour) 0 of 7; (T/C endpoint: mean tumor weight, dose: 666.0 mg/kg/injection, schedule: Q01DX011 (ip), vehicle: saline, higher T/C = larger tumour) 0 of 7. In addition, for the setting “T/C endpoint: mean tumor weight, dose: 1000.0 mg/kg/injection, schedule: Q01DX011 (ip), vehicle: saline, higher T/C = larger tumour”, the survivor count is 0 of 7 and 1 of 7.

As for `CN(N=O)C(=O)NC1CCOCC1`, the survivor count (T/C endpoint: median survival time, dose: 560.0 mg/kg/injection, schedule: Q01DX001 (ip), vehicle: saline with Tween-80, higher T/C = longer survival) is listed as 7 of 7 on day 11.

As to `CC(=N\O)/C(C)=N/O.CC(=N\O)/C(C)=N/O.[Pd]`, the survivor count reads like this: (T/C endpoint: median survival time, dose: 3.13 mg/kg/injection, schedule: Q01DX009 (ip), vehicle: Klucel (hydroxypropylcellulose) (HPC), higher T/C = longer survival) 10 of 10; (T/C endpoint: median survival time, dose: 6.25 mg/kg/injection, schedule: Q01DX009 (ip), vehicle: Klucel (hydroxypropylcellulose) (HPC), higher T/C = longer survival) 10 of 10.

Regarding `CN(C)CCCN1c2ccccc2Sc2ccc(C(F)(F)F)cc21`, the survivor count runs as follows: (T/C endpoint: mean tumor weight, dose: 50.0 mg/kg/injection, schedule: Q01DX011 (ip), vehicle: saline, higher T/C = larger tumour) 0 of 6; (T/C endpoint: mean tumor weight, dose: 100.0 mg/kg/injection, schedule: Q01DX011 (ip), vehicle: saline, higher T/C = larger tumour) 0 of 6.

Turning to `Cc1ccccn1`, the survivor count under setting [1] is listed as 0 of 6.

`Cc1cc(N(CCCl)CCCl)ccc1N=Nc1ccccc1C(=O)O`: the T/C reads like this: (T/C endpoint: median survival time, dose: 4.0 mg/kg/injection, schedule: Q04DX003 (ip), vehicle: saline with Tween-80, higher T/C = longer survival) 129 % of control; (T/C endpoint: median survival time, dose: 8.0 mg/kg/injection, schedule: Q04DX003 (ip), vehicle: saline with Tween-80, higher T/C = longer survival) 137 % of control. For the same molecule, the survivor count is listed as 10 of 10 (T/C endpoint: median survival time, dose: 16.0 mg/kg/injection, schedule: Q01DX009 (ip), vehicle: saline with Tween-80, higher T/C = longer survival); 10 of 10 (T/C endpoint: median survival time, dose: 16.0 mg/kg/injection, schedule: Q04DX003 (ip), vehicle: saline with Tween-80, higher T/C = longer survival); 9 of 10 (T/C endpoint: median survival time, dose: 32.0 mg/kg/injection, schedule: Q01DX009 (ip), vehicle: saline with Tween-80, higher T/C = longer survival); 8 of 10 (T/C endpoint: median survival time, dose: 40.0 mg/kg/injection, schedule: Q01DX001 (ip), vehicle: saline with Tween-80, higher T/C = longer survival); 10 of 10 (T/C endpoint: median survival time, dose: 64.0 mg/kg/injection, schedule: Q04DX003 (ip), vehicle: saline with Tween-80, higher T/C = longer survival); 10 of 10 (T/C endpoint: median survival time, dose: 80.0 mg/kg/injection, schedule: Q01DX001 (ip), vehicle: saline with Tween-80, higher T/C = longer survival). In addition, the survivor count (T/C endpoint: median survival time, dose: 160.0 mg/kg/injection, schedule: Q01DX001 (ip), vehicle: saline with Tween-80, higher T/C = longer survival) is 6 of 10.

Regarding `CN[C@@H](C)[C@@H](O)c1ccccc1`, the T/C (T/C endpoint: mean tumor weight, dose: 50.0 mg/kg/injection, schedule: Q01DX011 (ip), vehicle: carboxymethylcellulose (CMC), evaluated on day 12, higher T/C = larger tumour) was 136 % of control.

Consider `O=P(Oc1ccccc1)(Oc1ccccc1)c1ccccc1`, for which the survivor count reads like this: (T/C endpoint: mean tumor weight, dose: 300.0 mg/kg/injection, schedule: Q01DX011 (ip), vehicle: other, higher T/C = larger tumour) 0 of 6; (T/C endpoint: mean tumor weight, dose: 450.0 mg/kg/injection, schedule: Q01DX011 (ip), vehicle: other, higher T/C = larger tumour) 0 of 6.

As for `O=C1C=CC(=O)c2c(Cl)ccc(O)c21`, the survivor count (T/C endpoint: median survival time, dose: 10.0 mg/kg/injection, schedule: Q01DX009 (ip), vehicle: Klucel (hydroxypropylcellulose) (HPC), higher T/C = longer survival) is on record as 5 of 10.

As to `CO[C@H]1Nc2c(ccc(C)c2O)C(=O)N2C=C(/C=C/C(N)=O)C[C@@H]12`, the survivor count (T/C endpoint: median survival time, dose: 0.12 mg/kg/injection, schedule: Q04DX003 (ip), vehicle: saline with Tween-80, higher T/C = longer survival) was 7 of 10; the survivor count (T/C endpoint: median survival time, dose: 0.25 mg/kg/injection, schedule: Q04DX003 (ip), vehicle: saline with Tween-80, higher T/C = longer survival) is 3 of 10 and 6 of 10; the survivor count (T/C endpoint: median survival time, dose: 0.5 mg/kg/injection, schedule: Q04DX003 (ip), vehicle: saline with Tween-80, higher T/C = longer survival) was 4 of 10 and 10 of 10; the survivor count (T/C endpoint: median survival time, dose: 1.0 mg/kg/injection, schedule: Q04DX003 (ip), vehicle: saline with Tween-80, higher T/C = longer survival) is 3 of 10 and 10 of 10.

On to `CC(C)NCC(O)COc1cccc2ccccc12` (configuration not stated), for which the T/C runs as follows: (T/C endpoint: median survival time, dose: 4.0 mg/kg/injection, schedule: Q01DX009 (ip), vehicle: Klucel (hydroxypropylcellulose) (HPC), evaluated on day 45, higher T/C = longer survival) 127 % of control [9 of 10 alive]; (T/C endpoint: median survival time, dose: 4.0 mg/kg/injection, schedule: Q01DX009 (ip), vehicle: Klucel (hydroxypropylcellulose) (HPC), evaluated on day 60, higher T/C = longer survival) 92, 98, 100, 102 % of control; (T/C endpoint: median survival time, dose: 8.0 mg/kg/injection, schedule: Q01DX009 (ip), vehicle: Klucel (hydroxypropylcellulose) (HPC), evaluated on day 5, higher T/C = longer survival) 100 % of control; (T/C endpoint: median survival time, dose: 8.0 mg/kg/injection, schedule: Q01DX009 (ip), vehicle: Klucel (hydroxypropylcellulose) (HPC), evaluated on day 45, higher T/C = longer survival) 121 % of control; (T/C endpoint: median survival time, dose: 8.0 mg/kg/injection, schedule: Q01DX009 (ip), vehicle: Klucel (hydroxypropylcellulose) (HPC), evaluated on day 60, higher T/C = longer survival) 89, 93, 95, 102 % of control; (T/C endpoint: median survival time, dose: 16.0 mg/kg/injection, schedule: Q01DX009 (ip), vehicle: Klucel (hydroxypropylcellulose) (HPC), evaluated on day 5, higher T/C = longer survival) 104 % of control. The T/C runs as follows: (T/C endpoint: median survival time, dose: 16.0 mg/kg/injection, schedule: Q01DX009 (ip), vehicle: Klucel (hydroxypropylcellulose) (HPC), evaluated on day 45, higher T/C = longer survival) 114 % of control; (T/C endpoint: median survival time, dose: 16.0 mg/kg/injection, schedule: Q01DX009 (ip), vehicle: Klucel (hydroxypropylcellulose) (HPC), evaluated on day 60, higher T/C = longer survival) 94 [9 of 10 alive], 100, 112 % of control; (T/C endpoint: median survival time, dose: 32.0 mg/kg/injection, schedule: Q01DX009 (ip), vehicle: Klucel (hydroxypropylcellulose) (HPC), evaluated on day 5, higher T/C = longer survival) 126 % of control; (T/C endpoint: median survival time, dose: 32.0 mg/kg/injection, schedule: Q01DX009 (ip), vehicle: Klucel (hydroxypropylcellulose) (HPC), evaluated on day 45, higher T/C = longer survival) 140 % of control; (T/C endpoint: median survival time, dose: 32.0 mg/kg/injection, schedule: Q01DX009 (ip), vehicle: Klucel (hydroxypropylcellulose) (HPC), evaluated on day 60, higher T/C = longer survival) 96 [8 of 10 alive], 103, 113, 149 % of control; (T/C endpoint: median survival time, dose: 64.0 mg/kg/injection, schedule: Q01DX009 (ip), vehicle: Klucel (hydroxypropylcellulose) (HPC), evaluated on day 5, higher T/C = longer survival) 92 % of control. The T/C (T/C endpoint: median survival time, dose: 64.0 mg/kg/injection, schedule: Q01DX009 (ip), vehicle: Klucel (hydroxypropylcellulose) (HPC), evaluated on day 45, higher T/C = longer survival) is 93 % of control and the T/C (T/C endpoint: median survival time, dose: 64.0 mg/kg/injection, schedule: Q01DX009 (ip), vehicle: Klucel (hydroxypropylcellulose) (HPC), evaluated on day 60, higher T/C = longer survival) is reported as 93, 100, 106, 120 % of control. For the same molecule, the survivor count is 0 of 10 (2×), 1 of 10, 4 of 10 (T/C endpoint: median survival time, dose: 128.0 mg/kg/injection, schedule: Q01DX009 (ip), vehicle: Klucel (hydroxypropylcellulose) (HPC), higher T/C = longer survival) and 3 of 10 (T/C endpoint: median survival time, dose: 128.0 mg/kg/injection, schedule: Q02DX009 (ip), vehicle: Klucel (hydroxypropylcellulose) (HPC), higher T/C = longer survival).

`CCCCCOC(CN)C(Cl)(Cl)Cl` (configuration not stated): under “T/C endpoint: median survival time, dose: 50.0 mg/kg/injection, schedule: Q01DX009 (ip), vehicle: saline, higher T/C = longer survival”, the survivor count is 10 of 10.

Regarding `NNc1nncc2ccccc12`, the survivor count is, setting by setting: (T/C endpoint: mean tumor weight, dose: 65.0 mg/kg/injection, schedule: Q01DX011 (ip), vehicle: carboxymethylcellulose (CMC), higher T/C = larger tumour) 3 of 5; (T/C endpoint: mean tumor weight, dose: 100.0 mg/kg/injection, schedule: Q01DX011 (ip), vehicle: carboxymethylcellulose (CMC), higher T/C = larger tumour) 0 of 6; (T/C endpoint: mean tumor weight, dose: 150.0 mg/kg/injection, schedule: Q01DX011 (ip), vehicle: carboxymethylcellulose (CMC), higher T/C = larger tumour) 0 of 6; (T/C endpoint: mean tumor weight, dose: 225.0 mg/kg/injection, schedule: Q01DX011 (ip), vehicle: carboxymethylcellulose (CMC), higher T/C = larger tumour) 0 of 6; (T/C endpoint: mean tumor weight, dose: 335.0 mg/kg/injection, schedule: Q01DX011 (ip), vehicle: carboxymethylcellulose (CMC), higher T/C = larger tumour) 0 of 6; under setting [1], 0 of 6.

For the molecule `CCCC(Sc1nc(N)nc2nc[nH]c12)C(=O)O` (configuration not stated), the survivor count (T/C endpoint: mean tumor weight, dose: 960.0 mg/kg/injection, schedule: Q01DX011 (ip), vehicle: other, higher T/C = larger tumour) is on record as 0 of 6.

For `O=c1ccc2ccccc2o1`, the survivor count by setting is: (T/C endpoint: mean tumor weight, dose: 250.0 mg/kg/injection, schedule: Q01DX011 (ip), vehicle: carboxymethylcellulose (CMC), higher T/C = larger tumour) 0 of 6; (T/C endpoint: mean tumor weight, dose: 375.0 mg/kg/injection, schedule: Q01DX011 (ip), vehicle: carboxymethylcellulose (CMC), higher T/C = larger tumour) 0 of 6.
